In US20140079722A1, “EXTRACELLULAR TARGETED DRUG CONJUGATES” (CENTROSE, LLC, priority 2011, published 2014) one finds binding data, which are given here for one molecule.

No constants are given. Whether binding was seen depends on the method and setting. Some results given as binding are weak or reduced against the parent protein; the word gives no strength.

The target of assay [1] is T1, SEQ ID NO 5 (human).
T1 sequence (peptide, C-terminal cysteine conjugated to maleimide activated BSA): APDAVYTELQPTSPC
The assay can be described thus: ELISA, BSA-peptide conjugate coated, M53 at 1 ug/mL. Background: An ELISA detects its analyte on a solid surface through an enzyme-linked reagent.

Assay [2] has as its target T2, SEQ ID NO 4 (human).
T2 sequence (peptide, C-terminal cysteine conjugated to maleimide activated BSA): MDIQVPTRAPDAVYC
Described as above.

B1: M53 antibody (antibody, V domains shown)
VH: EVQLVESGGGLVQPKGTLKLSCAASGFSFNTHAMNWVRQAPGKSLEWVARTMSKSNNYATYYADSVKDRFIIRADDSQSMLYLQMNNLKTEDTAMYYCVRDDPKRGMDYWGQGTSVTVSS
VL: GIVMSQSPSSLAVSVGEKVTMSCKPSQSLLYSRNQKIYLAWYQQKPGQSPKLLIYWASTRESGVPDRFTGSGSGTDFTLIISSVRAEDLAVYYCQQYYNYPLTFGAGTKLELKR
As for B1, the binding entry in assay [1] and in assay [2] was “binds” throughout.
